These are yes or no findings as the source states them, for the method shown. Some binding calls cover weakened binding; strength is not graded here.
Biological target: T1, PDK1 50-359 [Tyr288Gly; Gln292Ala] (human) (UniProt O15530)
T1 sequence: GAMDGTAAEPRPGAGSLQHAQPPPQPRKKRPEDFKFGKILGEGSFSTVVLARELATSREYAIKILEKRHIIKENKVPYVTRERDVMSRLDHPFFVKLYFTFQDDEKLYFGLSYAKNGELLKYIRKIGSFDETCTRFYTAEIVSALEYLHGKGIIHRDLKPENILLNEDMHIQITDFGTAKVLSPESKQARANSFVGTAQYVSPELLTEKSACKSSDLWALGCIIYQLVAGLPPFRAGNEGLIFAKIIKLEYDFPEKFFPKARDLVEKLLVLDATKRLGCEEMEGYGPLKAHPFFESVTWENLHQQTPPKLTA
Test: co-crystal structure PDK1-33 (crystal form IV)

KGAGGGGFPQFSYSA [HM-peptide derived from PKB sequence] was tested, and the binding was “binds”.
